{"source": "patent US8080632B2", "about": "“Peptide mimics of melanocyte stimulating hormone” (The Feinstein Institute for Medical Research, priority 2005, dated 2011)", "test_system": "NF-κB", "assay": "NF-κB activity (EMSA) in LPS-treated RAW cells", "assay_type": "cell-based, murine", "note": "At least one peptide structure holds a part that was inferred or is arguable (an end, a ring closure or a residue). Ends that are not written are not given here.", "data": [{"sequence": "SLTKGRASYTMEFLKYDEAPSNVAQAVIEARGK [MECO-1]", "values": [{"measurement": "attenuation of the rise in NF-κB activity", "result": "equally active"}]}]}
